Laboratory results from PubChem BioAssay AID1347075 (National Center for Advancing Translational Sciences (NCATS), 2019).
Values joined by “and” are separate entries in the source; they are usually repeats but may differ in a detail not shown here. Equal values may be shown once. In all, about 400,000 compounds went through this assay and about 5,500 (1.4%) were called active. Inconclusive means that the source gave no clear call. Such entries were picked first, then a sample of the others. Calls follow the shape of the dose curve; as a rule, active = well fitted cell-killing curve with a large enough effect; inconclusive = small, poorly fitted or top-dose-only effect, or effect the other way; inactive = flat fitted curve, though single readings scatter. Potencies beside an inconclusive call are fits to weak or partial responses and may not hold up.

Assay: qHTS assay for MDR1-selective chemotherapeutics: Primary screen using the parental adenocarcinoma cell KB-3-1; also: nearly all actives have a fitted effect of over 60% in size
Details: KB-3-1 viability, CellTiter-Glo ATP luminescence, 72 h; activity change, negative = cytotoxic: at 46.1 µM (top of the series)
In short: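 Viability of parental KB-3-1 cells, measured by CellTiter-Glo luminescence, followed a 72 h incubation at 37 °C with pinned compounds in phenol-red-free DMEM containing 10% FBS.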
% is scaled to controls: 0 for no effect and ±100 for the full control effect; potency is read from the fitted curve at half-maximal effect.

Compound | Potency | activity change, negative = cytotoxic
CCCCCc1ccnc(CC(=O)c2ccc(OC)cc2)c1 | active: 23.1 µM | –
COc1cc(C2CC(=O)N(c3ccc(C)cc3)C(=O)C2)cc(OC)c1OC | active: 4.61 µM | –
COc1ccc(N(Cc2cccs2)C(=O)c2ccc(C(C)(C)C)cc2)cc1 | inactive | –
O=C(NCc1ccccc1F)C1CCCN(S(=O)(=O)c2ccc(-n3cnnn3)cc2)C1 (stereo not given) | inconclusive: 29.1 µM [cytotoxic, single point] | –
COc1ccc(O)c(C(=O)c2cc(C#N)c(=O)n(Cc3ccccc3)c2)c1 | inactive | –
CCNC(=S)NNC(=O)c1cc(-c2cccc(C)c2)nc2ccccc12 | inconclusive: 14.6 µM [cytotoxic, partial curve] | –
CC(C)(C)c1cc[n+](-c2nc([O-])sc2C=O)cc1 | inconclusive: 25.9 µM [cytotoxic, single point] | –
Cc1[nH]n(-c2ccccc2)c(=O)c1/C=N/NC(=O)c1ccoc1C | inconclusive: 8.2 µM [cytotoxic, partial curve, poor fit] | –
CCOc1ccccc1N1CC(C(=O)Nc2ccccc2CC)CC1=O (stereo not given) | inconclusive: 23.1 µM [rising, single point] | –
O=C(NCCCn1ccnc1)/C(=C/c1cccs1)NC(=O)c1ccco1 | – | inconclusive: 34.8%
O=C1/C(=C\c2ccccc2)CN(C(=O)CCN2CCCCC2)C/C1=C/c1ccccc1 | inconclusive: 9.2 µM [cytotoxic, partial curve, poor fit] | –
COC(=O)CN1C(c2ccc(OC)cc2)=Nc2ccc(Cl)cc2C1c1ccccc1 (stereo not given) | inconclusive: 23.1 µM [cytotoxic, single point] | –
COc1ccc(OCC(O)COc2ccc(OC)cc2)cc1 | inactive | –
Cc1ccccc1-n1c(C)cc(/C=N/Nc2ccc([N+](=O)[O-])cn2)c1C | inactive | –
COc1ccc(N(C(=O)c2cccc(C)c2)S(=O)(=O)c2ccc(C)cc2)cc1 | inconclusive: 32.6 µM [cytotoxic, single point] | –
O=C(Nc1nnc(S(=O)(=O)N2CCCc3ccccc32)s1)c1cccc(F)c1 | inconclusive: 23.1 µM [cytotoxic, single point] | –
O=C(CCC1N=C2c3ccccc3N=C(SCc3ccccc3F)N2C1=O)NCCc1ccccc1 (stereo not given) | inactive | –
O=C(CSc1nnc(C2CC2)n1C1CC1)c1cccs1 | inactive | –
CN(c1ccccc1)S(=O)(=O)c1cccc(NC(=O)CSc2nnc(N)s2)c1 | inconclusive: 25.9 µM [cytotoxic, single point] | –
CN1CCN(C(=O)CCCN2C(=O)/C(=C/c3ccccc3)SC2=S)CC1 | inconclusive: 29.1 µM [cytotoxic, single point] | –
COc1ccc(NC(=S)NCCN2CCC(C)CC2)cc1 | – | inconclusive: -32.9%
CCCCCCCN1C2=NCCCN2c2ccccc21 | inconclusive: 16.4 µM [cytotoxic, partial curve, poor fit] | –
O=C(Cn1c(=O)oc2ccccc21)Nc1nc(-c2ccc(Br)cc2)cs1 | inconclusive: 18.4 µM [cytotoxic, single point] | –
CC(=O)NC(CCc1ccc(Cl)c(Cl)c1)c1cccc(O)c(=O)c1 (stereo not given) | inconclusive: 23.1 µM [cytotoxic, single point] | –

2 entries picked at random from the list so far:
Compound | Potency | activity change, negative = cytotoxic
O=C(Nc1nnc(S(=O)(=O)N2CCCc3ccccc32)s1)c1cccc(F)c1 | inconclusive: 23.1 µM [cytotoxic, single point] | –
COc1cc(C2CC(=O)N(c3ccc(C)cc3)C(=O)C2)cc(OC)c1OC | active: 4.61 µM | –

Later entries.

Compound | Potency | activity change, negative = cytotoxic
COc1ccc(S(=O)(=O)N(C)C)cc1NC(=O)Cc1ccc(S(=O)(=O)N2CCOCC2)s1 | inactive | –
CCOc1ccc(Cn2c(=O)sc3ccccc32)cc1OC | inconclusive: 14.6 µM [cytotoxic, single point] | –
COc1ccc(OC)c(C=NNC(=O)c2ccccc2NS(=O)(=O)c2cccs2)c1 | inconclusive: 14.6 µM [rising, partial curve, poor fit] | –
Cc1c(OCC(=O)NCC2CCC(C(=O)NCCCO)CC2)ccc2c(-c3ccccc3)cc(=O)oc12 (stereo not given) | inconclusive: 7.31 µM [rising, partial curve] | –
O=C1CSC(c2cccs2)N1c1ccccc1 (stereo not given) | – | inconclusive: 41%
Cc1nnsc1-c1nnc(SCC(=O)c2ccccc2)n1C1CC1 | inconclusive: 0.0073 µM [cytotoxic, full curve, poor fit] | –
COCCNC(=O)C1CCCN(Cc2ccccc2)CC1 (stereo not given) | – | inconclusive: 0%
COc1ccc(Cl)cc1Nc1nc(C)cc(=O)[nH]1 | – | inconclusive: -13.5%
CCc1ccccc1NC(=O)Nc1nnc(N(C)Cc2ccccc2)s1 | inactive | –
COc1cc(C2Nc3ccc4ncccc4c3C3=C2C(=O)CCC3)cc(OC)c1OC (stereo not given) | inconclusive: 20.6 µM [cytotoxic, single point] | –
Cc1ccsc1/C=N/Nc1nc(=O)[nH]nc1C | inconclusive: 23.1 µM [cytotoxic, single point] | –
OC(c1cc(C(F)(F)F)nc2c(Cl)cc(Cl)cc12)C1CCCCN1 (stereo not given) | inconclusive: 20.6 µM [cytotoxic, single point] | –
CCN(CC)CCN(C(=O)c1cc2c(ccc3ccccc32)oc1=O)c1nc2cc3c(cc2s1)OCCO3 | inconclusive: 18.4 µM [cytotoxic, partial curve] | –
O=C(/C=C/[C@H]1O[C@@H](n2ccc(=O)[nH]c2=O)[C@H](O)[C@@H]1O)NCc1cccs1 | inactive | –
Clc1ccc(CN(Cc2ccc(Cl)cc2)c2nn[nH]n2)cc1 | inconclusive: 0.0146 µM [cytotoxic, full curve, poor fit] | –
Cc1n[nH]c(=O)c2c(NC(=O)CSc3nnnn3-c3ccc(O)cc3)oc(C)c12 | inconclusive: 9.2 µM [rising, partial curve, poor fit] | –
Cc1ccc(OCC(=O)c2cc(C)c(C)cc2C)c([N+](=O)[O-])n1 | inconclusive: 29.1 µM [cytotoxic, single point] | –
OC[C@@H]1CN(Cc2cccs2)C[C@H](n2cnc3c(N4CCCC4)ncnc32)O1 | inactive | –
Cc1ccc(C(=O)NCCNc2ncc(C(F)(F)F)cc2Cl)cc1[N+](=O)[O-] | inconclusive: 7.31 µM [rising, partial curve, poor fit] | –
CCC(C)NS(=O)(=O)c1ccc(F)c(C(=O)Nc2c(F)cc(F)cc2Br)c1 (stereo not given) | inactive | –
COc1cc(NC(=O)CCc2nc3cccnc3n2Cc2cccs2)cc(OC)c1OC | inactive | –
Cc1cc(S(=O)(=O)N2CCN(c3c(C)cccc3C)CC2)ccc1F | inactive | –
C=CCN1C(c2cccc(C(F)(F)F)c2)=CS/C1=C(/C#N)c1nnc(N2CCOCC2)n1-c1ccccc1 | inconclusive: 23.1 µM [cytotoxic, single point] | –
COc1ccc(Cl)cc1CC=NNC(=O)c1cccc(C)c1O | inactive | –

Compound | Potency | activity change, negative = cytotoxic
CC(=O)c1ccc(N2Cc3ccccc3C3(CCOCC3)C2=N)cc1 | inconclusive: 23.1 µM [rising, partial curve, poor fit] | –
CCOC(=O)CSc1nc(C)cc(Oc2ccc(=O)n(C)n2)n1 | – | inconclusive: 1.1%
COc1ccc(-c2c(-c3cc(OC)cc(OC)c3)n(C)c3ccc(-c4ccc(OC)nc4)cc23)cc1 | inconclusive: 6.51 µM [cytotoxic, partial curve, poor fit] | –
COc1ccccc1CNS(=O)(=O)c1cccs1 | inactive | –
CCOc1cc(N2CCOCC2)c(OCC)cc1NC(=O)CN1CCC(Cc2ccccc2)CC1 | inactive | –
CCCOc1ccc(NC(=O)CC2C(=O)N(c3ccc(OCC)cc3)C(=S)N2C2CC2)cc1 (stereo not given) | inconclusive: 18.4 µM [cytotoxic, partial curve, poor fit] | –
CC1CCC(C(C)C)C(OC(=O)Cn2c(-c3ccc(Br)cc3)[n+](C)c3ccccc32)C1 (stereo not given) | active: 18.4 µM and inconclusive: 29.1 µM [cytotoxic, single point] | –
COc1ccc(-c2nc3c(s2)CCc2onc(-c4ccc(OC)cc4)c2-3)cc1 | active: 20.6 µM | –
OCC1OC(n2cnc3c(/C=C(\O)c4ccccc4)ncnc32)C(O)C1O (stereo not given) | inconclusive: 32.6 µM [cytotoxic, single point] | –
O=C(O)c1ccc(/C=N/NC(=S)NCCN2CCOCC2)cc1 | inactive | –
COc1ccc(C)cc1NC(=O)CSc1nnc(COc2ccccc2)n1Cc1ccco1 | inconclusive: 32.6 µM [cytotoxic, single point] | –
O=c1[nH]nnc2c1cnn2-c1ccccc1 | inconclusive: 23.1 µM [cytotoxic, single point] | –
O=C(Nc1ccc2c(c1)OCO2)C1Cc2c(-c3ccccc3Oc3ccccc3)ccnc2O1 (stereo not given) | inactive | –
CCc1ccccc1OCC(=O)N1CCN(c2ncccn2)CC1 | inconclusive: 16.4 µM [rising, single point] | –
Cc1nc(-c2ccc(S(=O)(=O)N3CCN(c4cccc(C)c4C)CC3)cc2)co1 | inconclusive: 29.1 µM [cytotoxic, partial curve, poor fit] | –
COCc1c(C(=O)OCC(=O)c2c(N)n(CC(C)C)c(=O)n(C)c2=O)oc2ccccc12 | inconclusive: 8.2 µM [cytotoxic, partial curve] | –
Cc1ccc(Cl)cc1N1CCN(CC(=O)NC2CCCc3ccccc32)CC1 (stereo not given) | inconclusive: 18.4 µM [cytotoxic, single point] | –
COc1ccc(Cl)cc1C(=O)Nc1nc(C)cc(C)n1 | inactive | –
O=C(CCC(=O)c1ccc(F)cc1)Nc1ccc(Cl)cc1 | inactive | –
CCCCCN=Cc1c(C)[nH]n(-c2nc3ccccc3s2)c1=O | active: 2.59 µM | –
Cc1c(C(=O)Nc2ccc(OC(F)(F)F)cc2)sc2nc3n(c(=O)c12)CCC3 | inconclusive: 18.4 µM [cytotoxic, partial curve, poor fit] | –
Cc1ccc(-c2nc(SCC(=O)Nc3cc(S(=O)(=O)N4CCCCC4)ccc3Cl)n[nH]2)cc1 | inconclusive: 29.1 µM [cytotoxic, single point] | –

Taken from the results shown for reference:
Compound | Potency | activity change, negative = cytotoxic
Cc1ccc(Cl)cc1N1CCN(CC(=O)NC2CCCc3ccccc32)CC1 (stereo not given) | inconclusive: 18.4 µM [cytotoxic, single point] | –
COc1ccc(Cl)cc1C(=O)Nc1nc(C)cc(C)n1 | inactive | –
O=C(CCC(=O)c1ccc(F)cc1)Nc1ccc(Cl)cc1 | inactive | –
